Results as given in US8642555B2 (KTB Tumorforschungsgesellschaft mbH, priority 2009, dated 2014).
Strings that start with PEPTIDE1 are HELM notation: dots part the residues, brackets hold end groups and non-standard residues. Numbered stars: 1 amine (or outer) side, 2 acyl side, 3 side chain; on linkers, the order of the positions; unused ones are H or OH. Square brackets hold non-standard residues; d marks the D form. * marks the point of attachment. ξ: configuration not given here. X1 = COc1cccc2c1C(=O)c1c(O)c3c(c(O)c1C2=O)C[C@@](O)(C(=O)CO)CC3O[C@H]1C[C@@H](N*)C(O)[C@H](C)O1; Hexanoyl(6-maleimido) = O=C1C=CC(=O)N1CCCCCC(=O)*; PABC = O=C(OCc1ccc(N[*:1])cc1)[*:2]; ξY = NC(Cc1ccc(O)cc1)C(=O)O; ξR = N=C(N)NCCCC(N)C(=O)O; ξL = CC(C)CC(N)C(=O)O; ξS = NC(CO)C(=O)O

Assay: general procedure: peptide synthesis; DIPC/HOBt, 4-methylmorpholine
Details: coupling step

Substance	step yield	final HPLC purity (230 nm)	final HPLC purity (495 nm)
PEPTIDE1{[EMC].[xArg].[xSer].[xSer].[xTyr].[xTyr].[xSer].[xLeu].[PABC-Paclitaxel]}$$$$V2.0	45%	>95%	
{Hexanoyl(6-maleimido)}-[ξR][ξS][ξS][ξY][ξY][ξS][ξL][PABC]-X1 (SMILES COc1cccc2c1C(=O)c1c(O)c3c(c(O)c1C2=O)C[C@@](O)(C(=O)CO)CC3O[C@H]1C[C@@H](NC(=O)OCc2ccc(NC(=O)C(CC(C)C)NC(=O)C(CO)NC(=O)C(Cc3ccc(O)cc3)NC(=O)C(Cc3ccc(O)cc3)NC(=O)C(CO)NC(=O)C(CO)NC(=O)C(CCCNC(=N)N)NC(=O)CCCCCN3C(=O)C=CC3=O)cc2)C(O)[C@H](C)O1)	73%		>95%
